# Data taken from the supplement of paper PMC8728848.
# Some of the results follow.
# How the values were obtained:
# Test in all cases: glycan array binding signal (z-score within array); higher = stronger binding
# Settings in all cases: glycan notation: IUPAC condensed, linker removed
# [1] = biological target: Gal(b1-4)GlcNAc(b1-3)Gal(b1-3)GalNAc
# Method in brief: (§1)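 The Consortium for Functional Glycomics database supplied 3228 glycan arrays, of which those lacking an available protein sequence were dropped. The binding signal, a within-array Z-score, was averaged across arrays of the same protein sequence and across linkers. Negative scores can be read as non-binding.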
# [2] = biological target: Gal(b1-4)GlcNAc(b1-3)Gal(b1-3)GlcNAc
# Method in brief: as §1
# [3] = biological target: Gal(b1-4)GlcNAc(b1-3)Gal(b1-4)Glc
# Method in brief: as §1
# [4] = biological target: Gal(b1-4)GlcNAc(b1-3)Gal(b1-4)GlcNAc
# Method in brief: as §1
# [5] = biological target: Gal(b1-4)GlcNAc(b1-3)Gal(b1-4)GlcNAc(b1-2)Man(a1-3)[Gal(b1-4)GlcNAc(b1-3)Gal(b1-4)GlcNAc(b1-2)Man(a1-6)]Man(b1-4)GlcNAc(b1-4)GlcNAc
# Method in brief: as §1
# [6] = biological target: Gal(b1-4)GlcNAc(b1-3)Gal(b1-4)GlcNAc(b1-2)Man(a1-3)[Gal(b1-4)GlcNAc(b1-3)Gal(b1-4)GlcNAc(b1-2)Man(a1-6)]Man(b1-4)GlcNAc(b1-4)[Fuc(a1-6)]GlcNAc
# Method in brief: as §1
# [7] = biological target: Gal(b1-4)GlcNAc(b1-3)Gal(b1-4)GlcNAc(b1-2)[Gal(b1-4)GlcNAc(b1-3)Gal(b1-4)GlcNAc(b1-6)]Man(a1-6)[Gal(b1-4)GlcNAc(b1-3)Gal(b1-4)GlcNAc(b1-2)Man(a1-3)]Man(b1-4)GlcNAc(b1-4)GlcNAc
# Method in brief: as §1
# [8] = biological target: Gal(b1-4)GlcNAc(b1-3)Gal(b1-4)GlcNAc(b1-2)[Gal(b1-4)GlcNAc(b1-3)Gal(b1-4)GlcNAc(b1-6)]Man(a1-6)[Gal(b1-4)GlcNAc(b1-3)Gal(b1-4)GlcNAc(b1-2)Man(a1-3)]Man(b1-4)GlcNAc(b1-4)[Fuc(a1-6)]GlcNAc
# Method in brief: as §1
# [9] = biological target: Gal(b1-4)GlcNAc(b1-3)Gal(b1-4)GlcNAc(b1-3)Gal(b1-4)GlcNAc
# Method in brief: as §1
# [10] = biological target: Gal(b1-4)GlcNAc(b1-3)Gal(b1-4)GlcNAc(b1-3)Gal(b1-4)GlcNAc(b1-2)Man(a1-3)[Gal(b1-4)GlcNAc(b1-3)Gal(b1-4)GlcNAc(b1-3)Gal(b1-4)GlcNAc(b1-2)Man(a1-6)]Man(b1-4)GlcNAc(b1-4)GlcNAc
# Method in brief: as §1
# [11] = biological target: Gal(b1-4)GlcNAc(b1-3)Gal(b1-4)GlcNAc(b1-3)Gal(b1-4)GlcNAc(b1-2)Man(a1-3)[Gal(b1-4)GlcNAc(b1-3)Gal(b1-4)GlcNAc(b1-3)Gal(b1-4)GlcNAc(b1-2)Man(a1-6)]Man(b1-4)GlcNAc(b1-4)[Fuc(a1-6)]GlcNAc
# Method in brief: as §1
# [12] = biological target: Gal(b1-4)GlcNAc(b1-3)Gal(b1-4)GlcNAc(b1-3)Gal(b1-4)GlcNAc(b1-2)[Gal(b1-4)GlcNAc(b1-3)Gal(b1-4)GlcNAc(b1-3)Gal(b1-4)GlcNAc(b1-6)]Man(a1-6)[Gal(b1-4)GlcNAc(b1-3)Gal(b1-4)GlcNAc(b1-3)Gal(b1-4)GlcNAc(b1-2)Man(a1-3)]Man(b1-4)GlcNAc(b1-4)[Fuc(a1-6)]GlcNAc
# Method in brief: as §1
# [13] = biological target: Gal(b1-4)GlcNAc(b1-3)Gal(b1-4)GlcNAc(b1-3)Gal(b1-4)GlcNAc(b1-3)Gal(b1-4)GlcNAc(b1-2)Man(a1-3)[Gal(b1-4)GlcNAc(b1-3)Gal(b1-4)GlcNAc(b1-3)Gal(b1-4)GlcNAc(b1-3)Gal(b1-4)GlcNAc(b1-2)Man(a1-6)]Man(b1-4)GlcNAc(b1-4)GlcNAc
# Method in brief: as §1
# [14] = biological target: Gal(b1-4)GlcNAc(b1-3)Gal(b1-4)GlcNAc(b1-3)Gal(b1-4)GlcNAc(b1-3)Gal(b1-4)GlcNAc(b1-2)Man(a1-3)[Gal(b1-4)GlcNAc(b1-3)Gal(b1-4)GlcNAc(b1-3)Gal(b1-4)GlcNAc(b1-3)Gal(b1-4)GlcNAc(b1-2)Man(a1-6)]Man(b1-4)GlcNAc(b1-4)[Fuc(a1-6)]GlcNAc
# Method in brief: as §1
# [15] = biological target: Gal(b1-4)GlcNAc(b1-3)Gal(b1-4)GlcNAc(b1-3)Gal(b1-4)GlcNAc(b1-3)Gal(b1-4)GlcNAc(b1-2)[Gal(b1-4)GlcNAc(b1-3)Gal(b1-4)GlcNAc(b1-3)Gal(b1-4)GlcNAc(b1-3)Gal(b1-4)GlcNAc(b1-6)]Man(a1-6)[Gal(b1-4)GlcNAc(b1-3)Gal(b1-4)GlcNAc(b1-3)Gal(b1-4)GlcNAc(b1-3)Gal(b1-4)GlcNAc(b1-2)Man(a1-3)]Man(b1-4)GlcNAc(b1-4)[Fuc(a1-6)]GlcNAc
# Method in brief: as §1
# [16] = biological target: Gal(b1-4)GlcNAc(b1-3)Gal(b1-4)GlcNAc(b1-3)Gal(b1-4)GlcNAc(b1-3)Gal(b1-4)GlcNAc(b1-3)Gal(b1-4)GlcNAc(b1-2)Man(a1-3)[Gal(b1-4)GlcNAc(b1-3)Gal(b1-4)GlcNAc(b1-3)Gal(b1-4)GlcNAc(b1-3)Gal(b1-4)GlcNAc(b1-3)Gal(b1-4)GlcNAc(b1-2)Man(a1-6)]Man(b1-4)GlcNAc(b1-4)GlcNAc
# Method in brief: as §1
# [17] = biological target: Gal(b1-4)GlcNAc(b1-3)Gal(b1-4)GlcNAc(b1-3)Gal(b1-4)GlcNAc(b1-3)Gal(b1-4)GlcNAc(b1-3)Gal(b1-4)GlcNAc(b1-2)Man(a1-3)[Gal(b1-4)GlcNAc(b1-3)Gal(b1-4)GlcNAc(b1-3)Gal(b1-4)GlcNAc(b1-3)Gal(b1-4)GlcNAc(b1-3)Gal(b1-4)GlcNAc(b1-2)Man(a1-6)]Man(b1-4)GlcNAc(b1-4)[Fuc(a1-6)]GlcNAc
# Method in brief: as §1
# [18] = biological target: Gal(b1-4)GlcNAc(b1-3)Gal(b1-4)GlcNAc(b1-3)Gal(b1-4)GlcNAc(b1-3)Gal(b1-4)GlcNAc(b1-3)Gal(b1-4)GlcNAc(b1-2)[Gal(b1-4)GlcNAc(b1-3)Gal(b1-4)GlcNAc(b1-3)Gal(b1-4)GlcNAc(b1-3)Gal(b1-4)GlcNAc(b1-3)Gal(b1-4)GlcNAc(b1-6)]Man(a1-6)[Gal(b1-4)GlcNAc(b1-3)Gal(b1-4)GlcNAc(b1-3)Gal(b1-4)GlcNAc(b1-3)Gal(b1-4)GlcNAc(b1-3)Gal(b1-4)GlcNAc(b1-2)Man(a1-3)]Man(b1-4)GlcNAc(b1-4)[Fuc(a1-6)]GlcNAc
# Method in brief: as §1
# [19] = biological target: Gal(b1-4)GlcNAc(b1-3)Gal(b1-4)GlcNAc(b1-3)Gal(b1-4)GlcNAc(b1-3)Gal(b1-4)GlcNAc(b1-3)Gal(b1-4)GlcNAc(b1-3)Gal(b1-4)GlcNAc(b1-2)Man(a1-3)[Gal(b1-4)GlcNAc(b1-3)Gal(b1-4)GlcNAc(b1-3)Gal(b1-4)GlcNAc(b1-3)Gal(b1-4)GlcNAc(b1-3)Gal(b1-4)GlcNAc(b1-3)Gal(b1-4)GlcNAc(b1-2)Man(a1-6)]Man(b1-4)GlcNAc(b1-4)GlcNAc
# Method in brief: as §1
binder,measurement,setting,value
"Gal 12 (Homo sapiens), Q96DT0 (protein) MSQPSGGRAPGTRIYSWSCPTVMSPGEKLDPIPDSFILQPPVFHPVVPYVTTIFGGLHAGKMVMLQGVVPLDAHRFQVDFQCGCSLCPRPDIAFHFNPRFHTTKPHVICNTLHGGRWQREARWPHLALRRGSSFLILFLFGNEEVKVSVNGQHFLHFRYRLPLSHVDTLGIFGDILVEAVGFLNINPFVEGSREYPAGHPFLLMSPRLEVPCSHALPQGLSPGQVIIVRGLVLQEPKHFTVSLRDQAAHAPVTLRASFADRTLAWISRWGQKKLISAPFLFYPQRFFEVLLLFQEGGLKLALNGQGLGATSMNQQALEQLRELRISGSVQLYCVHS",glycan array binding signal (z-score),[1],0.396
same,glycan array binding signal (z-score),[2],0.043
same,glycan array binding signal (z-score),[3],-0.36
same,glycan array binding signal (z-score),[4],-0.226
same,glycan array binding signal (z-score),[5],1.1
same,glycan array binding signal (z-score),[6],0.609
same,glycan array binding signal (z-score),[7],1.5
same,glycan array binding signal (z-score),[8],-0.068
same,glycan array binding signal (z-score),[9],-0.453
same,glycan array binding signal (z-score),[10],1.53
same,glycan array binding signal (z-score),[11],-0.445
same,glycan array binding signal (z-score),[12],3.44
same,glycan array binding signal (z-score),[13],2.32
same,glycan array binding signal (z-score),[14],-0.034
same,glycan array binding signal (z-score),[15],0.071
same,glycan array binding signal (z-score),[16],1.93
same,glycan array binding signal (z-score),[17],0.431
same,glycan array binding signal (z-score),[18],0.61
same,glycan array binding signal (z-score),[19],1.16

# A different layout for part of the listing above:
binder | measurement | setting | value
Gal 12 (Homo sapiens), Q96DT0 (protein) MSQPSGGRAPGTRIYSWSCPTVMSPGEKLDPIPDSFILQPPVFHPVVPYVTTIFGGLHAGKMVMLQGVVPLDAHRFQVDFQCGCSLCPRPDIAFHFNPRFHTTKPHVICNTLHGGRWQREARWPHLALRRGSSFLILFLFGNEEVKVSVNGQHFLHFRYRLPLSHVDTLGIFGDILVEAVGFLNINPFVEGSREYPAGHPFLLMSPRLEVPCSHALPQGLSPGQVIIVRGLVLQEPKHFTVSLRDQAAHAPVTLRASFADRTLAWISRWGQKKLISAPFLFYPQRFFEVLLLFQEGGLKLALNGQGLGATSMNQQALEQLRELRISGSVQLYCVHS | glycan array binding signal (z-score) | [13] | 2.32
same | glycan array binding signal (z-score) | [14] | -0.034
